Measured values published in the supplement of paper PMC5407854, “Inhibitor of ppGalNAc-T3-mediated O-glycosylation blocks cancer cell invasiveness and lowers FGF23 levels” (eLife, 2017).
Some of the results follow. Most values lie at the level of the controls, where differences are scatter.

System: ppGalNAc-T3 sensor
Assay: T3 sensor activation Q score (MG/GFP ratio z-score vs DMSO controls) (SD units); higher = more sensor activation (inhibition of ppGalNAc-T3 glycosylation)
Details: HEK293 sensor cells; 10 µM; 6 h
Method: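 Cells were treated with compound at 10 uM for 6 h, then MG/GFP ratio was read by flow cytometry (10,000 cells per well, duplicate wells). Q = (R - R_neg)/SD_neg relative to DMSO vehicle controls; the signal rises when the glycosyltransferase is inhibited.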

Q: For `CC(C)CSc1nnc2c(n1)[nH]c1ccccc12`, which “T3 sensor activation Q score” value is on record?
A: 0.505

Q: For `COc1ccc2nc(N3CCOCC3)cc(C)c2c1`, which “T3 sensor activation Q score” value is on record?
A: 0.24

Q: How did the “T3 sensor activation Q score” value turn out when `Cc1ccc(C)c(C(=O)c2ccccc2C(=O)O)c1` was run?
A: 0.27

Q: With `COc1ccc(N2C(=O)C(O)=C(C(C)=O)C2c2ccccc2)cc1` (stereo not given) as the compound, how does the “T3 sensor activation Q score” value read?
A: 0.065

Q: Which “T3 sensor activation Q score” value does the source give for `CN1C(=O)CC(=O)N(C)c2ccccc21` here?
A: -0.225

Q: For `COc1ccc(C2OCC3(CO)C(C)C=C(C)C2C3C)cc1` (stereo not given), which “T3 sensor activation Q score” value is on record?
A: 0.205

Q: For `COc1ccccc1C(=O)Nc1ccc(-c2nc3cc(C)ccc3o2)cc1`, which “T3 sensor activation Q score” value is on record?
A: 0.23

Q: Which “T3 sensor activation Q score” value does the source give for `Cc1ccccc1OCC(=O)Nc1cccc(Cl)c1C` here?
A: 0.04

Q: With `COc1ccccc1CNC(=O)Cc1ccc(OC)c(OC)c1` as the compound, how does the “T3 sensor activation Q score” value read?
A: 0.335

Q: For `OC(C#CCN1CCCCC1)c1ccccc1` (stereo not given), which “T3 sensor activation Q score” value is on record?
A: -0.395

Q: With `CC(=O)c1cc(F)c(N2CCN(C(=O)c3ccc(F)cc3F)CC2)cc1C` as the compound, how does the “T3 sensor activation Q score” value read?
A: 0.835

Q: How did the “T3 sensor activation Q score” value turn out when `CCCN1CCC(N(C)CCN(C)C)CC1` was run?
A: 0.415

Q: Which “T3 sensor activation Q score” value does the source give for `C=CCNC(=O)Cc1ccc([N+](=O)[O-])cc1` here?
A: -0.735

Q: For `CN1CCC(O)(c2ccccc2)C(C)(C)C1` (stereo not given), which “T3 sensor activation Q score” value is on record?
A: 0.485

Q: For `O=[N+]([O-])c1ccccc1CN1CCCCCCC1`, which “T3 sensor activation Q score” value is on record?
A: 0

Q: Which “T3 sensor activation Q score” value does the source give for `COc1cccc(NC2=C(N(C)C)C(=O)c3ccccc3C2=O)c1` here?
A: -0.815

Q: `Cc1ccc(C)c(CN2CCN(Cc3ccc4c(c3)OCO4)CC2)c1` was tested. Which “T3 sensor activation Q score” value did it give?
A: 0.9

Q: Which “T3 sensor activation Q score” value does the source give for `Cc1cccc(OCC(=O)Nc2cc(Cl)ccc2C)c1` here?
A: 1

Q: `O=C(Nc1cc(Cl)ccc1Cl)c1ccncc1` was tested. Which “T3 sensor activation Q score” value did it give?
A: 0.18

Q: Which “T3 sensor activation Q score” value does the source give for `COc1ccc2[nH]c3c(c2c1)CCNC3=O` here?
A: 0.7

Q: How did the “T3 sensor activation Q score” value turn out when `COc1cc(CN2CCSCC2)cc(OC)c1OC` was run?
A: 0.245

Q: With `O=C(O)Cn1cc(Br)c(=O)[nH]c1=O` as the compound, how does the “T3 sensor activation Q score” value read?
A: 0.705

Q: Which “T3 sensor activation Q score” value does the source give for `CCc1cccc(NC2CC(=O)N(c3ccc(Br)cc3)C2=O)c1` (stereo not given) here?
A: 0.205

Q: How did the “T3 sensor activation Q score” value turn out when `Cc1nc2ccc(C(=O)O)cc2[nH]1` was run?
A: -0.14

Q: `O=C(O)c1ccc(S(=O)(=O)c2ccccc2)cc1` was tested. Which “T3 sensor activation Q score” value did it give?
A: 0.65

Q: For `Cc1ccc(NCC(O)C(O)C(O)CO)cc1C` (stereo not given), which “T3 sensor activation Q score” value is on record?
A: 1.16

Q: How did the “T3 sensor activation Q score” value turn out when `COc1ccc(CCNC(=O)C2CCCCC2)cc1OC` was run?
A: 0.19

Q: How did the “T3 sensor activation Q score” value turn out when `O=C(COc1ccccc1)N1c2ccccc2Sc2ccccc21` was run?
A: -0.545

Q: For `CCN1CCN(C/C(C)=C/c2ccccc2)CC1`, which “T3 sensor activation Q score” value is on record?
A: 0.3

Q: With `CN(C)CCN(C)Cc1ccccc1F` as the compound, how does the “T3 sensor activation Q score” value read?
A: -0.455

Q: How did the “T3 sensor activation Q score” value turn out when `Cc1ccc(C(=O)NCc2ccc([N+](=O)[O-])cc2)cc1` was run?
A: 0.02

Q: For `CCOc1ccccc1C(=O)Nc1ccc(Cl)cc1F`, which “T3 sensor activation Q score” value is on record?
A: 0.345

Q: How did the “T3 sensor activation Q score” value turn out when `COc1ccc(Nc2cc(-n3cccn3)ncn2)cc1` was run?
A: 0.08

Q: How did the “T3 sensor activation Q score” value turn out when `Brc1cnc2nc(COc3ccccc3)[nH]c2c1` was run?
A: 1.6

Q: With `COc1cc(C)c(CN2CCCCC2)cc1C` as the compound, how does the “T3 sensor activation Q score” value read?
A: 0.345

Q: `Cc1cccc(C(=O)Nc2ccc(C(C)C)cc2)c1` was tested. Which “T3 sensor activation Q score” value did it give?
A: 0.51

Q: Which “T3 sensor activation Q score” value does the source give for `CC(=O)C1=C(O)C(=O)N(CC(=O)O)C1c1ccccc1` (stereo not given) here?
A: -0.46

Q: How did the “T3 sensor activation Q score” value turn out when `Cc1ccc(C(=O)/C=C(\c2ccccc2)N2CCCCC2)cc1` was run?
A: -0.545

Q: With `O=C(O)C1CCCCC1C(=O)Nc1ccccc1Cl` (stereo not given) as the compound, how does the “T3 sensor activation Q score” value read?
A: -0.485

Q: `CN1C(=O)CC(N2CCN(Cc3ccccc3)CC2)C1=O` (stereo not given) was tested. Which “T3 sensor activation Q score” value did it give?
A: 0.505
